Data on 1 substance can be found in PMC10282026.

Chains of the proteins cited; added tags and fusions are not shown.
UniProt P62137: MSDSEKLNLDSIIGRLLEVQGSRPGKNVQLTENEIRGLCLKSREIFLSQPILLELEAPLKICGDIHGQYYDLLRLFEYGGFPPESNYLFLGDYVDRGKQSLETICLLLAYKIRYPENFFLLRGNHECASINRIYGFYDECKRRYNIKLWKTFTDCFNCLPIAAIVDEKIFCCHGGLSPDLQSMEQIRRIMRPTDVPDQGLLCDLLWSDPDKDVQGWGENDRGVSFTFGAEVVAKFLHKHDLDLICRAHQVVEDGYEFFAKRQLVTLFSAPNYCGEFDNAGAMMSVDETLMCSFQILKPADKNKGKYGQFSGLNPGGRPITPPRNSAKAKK

This assay addresses T1, Cyclin L1 (UniProt Q52KE7).
T1 sequence: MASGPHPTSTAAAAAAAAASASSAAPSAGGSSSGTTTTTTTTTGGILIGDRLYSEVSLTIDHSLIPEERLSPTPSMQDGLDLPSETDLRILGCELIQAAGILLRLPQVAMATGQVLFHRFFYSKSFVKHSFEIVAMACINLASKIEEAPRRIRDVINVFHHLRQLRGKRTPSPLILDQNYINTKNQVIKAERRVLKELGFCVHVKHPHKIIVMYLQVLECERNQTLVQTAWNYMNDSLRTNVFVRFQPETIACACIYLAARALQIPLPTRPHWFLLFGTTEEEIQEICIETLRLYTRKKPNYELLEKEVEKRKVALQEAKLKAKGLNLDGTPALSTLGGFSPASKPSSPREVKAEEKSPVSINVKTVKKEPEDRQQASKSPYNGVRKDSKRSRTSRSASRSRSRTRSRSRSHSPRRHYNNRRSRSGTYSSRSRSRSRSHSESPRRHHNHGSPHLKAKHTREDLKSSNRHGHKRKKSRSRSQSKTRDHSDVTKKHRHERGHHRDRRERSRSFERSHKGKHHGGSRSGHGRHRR
The assay is described as follows: affinity purification with mass spectrometry; Co-IP/LC-MS of the immunoprecipitated CCNL1 complex; two groups, CCNL1-IgG and CCNL1-IP.

No constants are given. Whether binding was seen depends on the method and setting. Binding seen in cells or lysates may run through a third protein. A yes stands for co-enrichment or nearness to the bait. Other partners may have been found.

On to “PPP1CA (from UniProt P62137 1-330) (enzyme)”, for which the binding result was “binds”.
